Source: US20110091477A1
These are yes or no findings as the source states them, for the method shown. Some results given as binding are weak or reduced against the parent protein; the word gives no strength.

Key:
[1] = biological target: T1, HGFA (Val373-Ser655) (human) (UniProt Q04756); assay: SPR
T1 sequence: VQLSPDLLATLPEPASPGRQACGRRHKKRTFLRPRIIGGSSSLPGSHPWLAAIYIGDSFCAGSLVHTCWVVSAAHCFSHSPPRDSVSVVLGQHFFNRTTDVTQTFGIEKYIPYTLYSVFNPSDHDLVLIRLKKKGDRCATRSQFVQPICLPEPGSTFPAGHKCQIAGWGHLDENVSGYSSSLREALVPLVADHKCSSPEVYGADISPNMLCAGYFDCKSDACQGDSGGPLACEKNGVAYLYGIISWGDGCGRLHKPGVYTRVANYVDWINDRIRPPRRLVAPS

[2] = biological target: T1, HGFA (Val373-Ser655) (human); assay: SPR (BIAcore), Ab40.ΔTrp captured on the chip, HGFA injected in serial dilutions (long injection for steady state)

B1: Ab40.ΔTrp (antibody, V domains shown)
VH: EVQLVESGGGLVQPGGSLRLSCAASGFTFNGTYIHWVRQAPGKGLEWVGGIYPAGGATYYADSVKGRFTISRDNSKNTLYLQMNSLRAEDTAVYYCAKWAWPAFDYWGQGTLVTVSS
VL: DIQMTQSPSSLSASVGDRVTITCRASQDVSTAVAWYQQKPGKAPKLLIYSASFLYSGVPSRFSGSGSGTDFTLTISSLQPEDFATYYCQQSNRAPATFGQGTKVEIKR
[1]
  binding: binds
[2]
  binding: binds
